Values from PubChem BioAssay AID504764 (Drosophila RNAi Screening Center, 2011).
The deposit covers about 22,000 reagents; shown is a random part of those that have a named target and a result. In the full data, 403 (1.9%) are marked active. 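Unnormalised raw counts per well; ratio z-scores behind the hit calls and whether each hit raises or lowers signal are not deposited.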 Names joined by + are all predicted targets of the reagent. No sequences are given here. The record does not give: the amount of reagent.

Assay: 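Knock-downs that raise or lower a Notch target reporter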 (primary screen)
Cells: Drosophila Kc167 cells
Reagent: long dsRNA against Drosophila genes
Time to read-out: about 5 days (4 days dsRNA, then 24 h after transfection)
Challenge: transfection of constitutively active membrane-tethered Notch lacking the extracellular domain, read 24 h later
Detection: 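Light from a Notch-responsive E(spl)m3 luciferase reporter under active Notch, with control-promoter and no-Notch reporter wells to normalise; raw counts from paired wells a and b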
Direction: induced reporter light, run 1, well a and induced reporter light, run 1, well b: higher = more light from the Notch target reporter with active Notch; control promoter light, run 1, well a and control promoter light, run 1, well b: higher = more light from the viral control promoter (cell number, transfection, viability); uninduced reporter light, run 1, well a: higher = more light from the Notch target reporter without active Notch
Active means: 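Hit if the duplicate-averaged log2 ratio of induced to control-promoter light gives a plate-wise z beyond ±2, or induced to uninduced beyond ±1.8; weak-control or discordant-duplicate wells dropped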
Meaning of the calls: active = modifier hit (raised or lowered Notch signal); inactive = not a hit

For CG4293 [DRSC18557] the deposit lists induced reporter light, run 1, well a = 1.43e5; induced reporter light, run 1, well b = 1.59e5; control promoter light, run 1, well a = 1.89e5; control promoter light, run 1, well b = 2.53e5; uninduced reporter light, run 1, well a = 11488; inactive.
For CG14414 [DRSC19599], the values are induced reporter light, run 1, well a = 1.21e5; induced reporter light, run 1, well b = 1.05e5; control promoter light, run 1, well a = 96405; control promoter light, run 1, well b = 1.28e5; uninduced reporter light, run 1, well a = 13240; inactive.
Anp [DRSC14112] showed induced reporter light, run 1, well a = 1.25e5; induced reporter light, run 1, well b = 1.31e5; control promoter light, run 1, well a = 1.61e5; control promoter light, run 1, well b = 1.42e5; uninduced reporter light, run 1, well a = 12000; inactive.
CG33061 [DRSC09938] showed induced reporter light, run 1, well a = 1.38e5; induced reporter light, run 1, well b = 1.64e5; control promoter light, run 1, well a = 2.25e5; control promoter light, run 1, well b = 1.48e5; uninduced reporter light, run 1, well a = 7780; inactive.
Silencing of CG33061 [DRSC22897] came out at: inactive.
Depletion of Rab4 + CG42239 [DRSC05667] resulted in: induced reporter light, run 1, well a = 1.01e5; induced reporter light, run 1, well b = 1.10e5; control promoter light, run 1, well a = 1.40e5; control promoter light, run 1, well b = 1.40e5; uninduced reporter light, run 1, well a = 8700; inactive.
After knock-down of CG13000 [DRSC19519] the results were induced reporter light, run 1, well a = 49885; induced reporter light, run 1, well b = 47455; control promoter light, run 1, well a = 47300; control promoter light, run 1, well b = 41080; uninduced reporter light, run 1, well a = 7565; inactive.
Silencing of pot [DRSC19850] gave: induced reporter light, run 1, well a = 1.94e5; induced reporter light, run 1, well b = 1.74e5; control promoter light, run 1, well a = 2.63e5; control promoter light, run 1, well b = 2.73e5; uninduced reporter light, run 1, well a = 13380; inactive.
After knock-down of CG15394 [DRSC00408] the results were induced reporter light, run 1, well a = 1.31e5; induced reporter light, run 1, well b = 1.32e5; control promoter light, run 1, well a = 1.09e5; control promoter light, run 1, well b = 63645; uninduced reporter light, run 1, well a = 8740; inactive.
ph-d [DRSC18819] showed induced reporter light, run 1, well a = 7510; induced reporter light, run 1, well b = 8365; control promoter light, run 1, well a = 17155; control promoter light, run 1, well b = 14875; uninduced reporter light, run 1, well a = 2825; inactive.
With knock-down of CG31473 [DRSC15443], the record shows induced reporter light, run 1, well a = 1.13e5; induced reporter light, run 1, well b = 90135; control promoter light, run 1, well a = 71560; control promoter light, run 1, well b = 78615; uninduced reporter light, run 1, well a = 5420; inactive.
Depletion of CG10904 [DRSC04084] gave: induced reporter light, run 1, well a = 2.37e5; induced reporter light, run 1, well b = 2.02e5; control promoter light, run 1, well a = 2.02e5; control promoter light, run 1, well b = 1.76e5; uninduced reporter light, run 1, well a = 14450; inactive.

A portion from the list above:
CG15394 [DRSC00408]: induced reporter light, run 1, well a = 1.31e5; induced reporter light, run 1, well b = 1.32e5; control promoter light, run 1, well a = 1.09e5; control promoter light, run 1, well b = 63645; uninduced reporter light, run 1, well a = 8740; Call = inactive
ph-d [DRSC18819]: induced reporter light, run 1, well a = 7510; induced reporter light, run 1, well b = 8365; control promoter light, run 1, well a = 17155; control promoter light, run 1, well b = 14875; uninduced reporter light, run 1, well a = 2825; Call = inactive
